Experimental data as given in patent US20180264110A1.

Target: BTLA, PNGaseF +
Assay: dot blot: deglycosylated BTLA (PNGaseF +), 0.5 µg/well on nitrocellulose, anti-mouse-HRP detection; well taken from the layout of FIG. 1A

B1: STC626 (antibody, V domains shown)
VH: QIQLVQSGPELKKPGETVKISCKASGYTFTNYGMNWVKQAPGKGLKWMGWINTNTGEPTYAEEFKGRIAFSLESSASTAYLQINNLKNEDTATYFCAREGVRRGGYFFDYWGQGTTLTVSS
VL: DIQMTQSPASLSVSVGETVTITCRASENIYSNLAWYQQKQGKSPQLLVYAATNLADGVPSRFSGSGSGTQYSLKINSLQSEDFGSYHCQHFWGFPFTFGAGTKLEIKR
binding: binds

No constants are given. Whether binding was seen depends on the method and setting. Binding can be weak; no strength is given.
